In article PMC10265526:
Results are given in words; binding and its absence hold for the method and conditions named. In cells and extracts the contact can be indirect. Some results given as binding are weak or reduced against the parent protein; the word gives no strength. For some assays here: Where a sequence is shown, tags or fusion partners need not be part of it.

Key:
[1] = substrate: T1, OSBP (mouse (endogenous in N2a)) (UniProt Q3B7Z2); assay: co-IP; N2a cells treated with ethanol (ETOH, control) for 36 h, lysed in RIPA buffer; OSBP antibody as bait on protein A/G magnetic beads, overnight at 4 °C; precipitate analysed by Western blot
T1 sequence: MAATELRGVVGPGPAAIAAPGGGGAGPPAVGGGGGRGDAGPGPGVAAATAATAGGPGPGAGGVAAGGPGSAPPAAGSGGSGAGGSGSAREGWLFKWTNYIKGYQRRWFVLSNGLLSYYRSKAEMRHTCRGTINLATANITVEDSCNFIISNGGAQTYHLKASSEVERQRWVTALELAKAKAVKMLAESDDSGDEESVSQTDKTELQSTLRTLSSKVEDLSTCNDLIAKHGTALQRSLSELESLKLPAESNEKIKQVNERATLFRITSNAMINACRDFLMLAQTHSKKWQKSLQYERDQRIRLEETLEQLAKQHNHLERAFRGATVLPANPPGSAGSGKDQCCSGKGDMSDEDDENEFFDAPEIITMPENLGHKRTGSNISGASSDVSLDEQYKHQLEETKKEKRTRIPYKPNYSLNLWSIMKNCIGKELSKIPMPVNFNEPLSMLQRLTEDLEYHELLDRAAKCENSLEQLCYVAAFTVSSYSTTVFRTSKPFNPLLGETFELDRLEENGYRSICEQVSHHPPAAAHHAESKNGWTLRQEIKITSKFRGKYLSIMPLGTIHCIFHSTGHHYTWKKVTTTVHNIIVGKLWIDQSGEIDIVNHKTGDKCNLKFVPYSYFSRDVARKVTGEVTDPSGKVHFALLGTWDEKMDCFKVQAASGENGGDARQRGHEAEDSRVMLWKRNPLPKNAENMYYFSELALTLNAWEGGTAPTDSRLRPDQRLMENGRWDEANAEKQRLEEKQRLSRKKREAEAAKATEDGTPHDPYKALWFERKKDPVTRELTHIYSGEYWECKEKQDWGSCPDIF

FLAG-VAPA = biological target: T2, FLAG-VAPA (UniProt Q9WV55); assay: co-IP; N2a cells transfected with FLAG-VAPA for 12 h, then treated with different concentrations of 24HC for 24 h; FLAG antibody as bait; precipitate analysed by Western blot
T2 sequence: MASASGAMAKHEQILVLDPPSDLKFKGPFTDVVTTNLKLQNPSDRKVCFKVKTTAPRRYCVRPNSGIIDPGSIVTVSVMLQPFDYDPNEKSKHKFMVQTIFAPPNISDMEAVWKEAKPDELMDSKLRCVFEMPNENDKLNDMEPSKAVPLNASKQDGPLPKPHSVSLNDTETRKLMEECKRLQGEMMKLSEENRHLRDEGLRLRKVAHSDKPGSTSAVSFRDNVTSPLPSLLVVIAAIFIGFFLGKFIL

B1: vesicle-associated membrane protein-associated protein A (VAPA) (protein, UniProt Q9WV55 1-249)
chain: MASASGAMAKHEQILVLDPPSDLKFKGPFTDVVTTNLKLQNPSDRKVCFKVKTTAPRRYCVRPNSGIIDPGSIVTVSVMLQPFDYDPNEKSKHKFMVQTIFAPPNISDMEAVWKEAKPDELMDSKLRCVFEMPNENDKLNDMEPSKAVPLNASKQDGPLPKPHSVSLNDTETRKLMEECKRLQGEMMKLSEENRHLRDEGLRLRKVAHSDKPGSTSAVSFRDNVTSPLPSLLVVIAAIFIGFFLGKFIL
In the case of B1, the binding [1] is reported as “binds”.

B2: OSBP (protein, UniProt Q3B7Z2 1-805)
chain: MAATELRGVVGPGPAAIAAPGGGGAGPPAVGGGGGRGDAGPGPGVAAATAATAGGPGPGAGGVAAGGPGSAPPAAGSGGSGAGGSGSAREGWLFKWTNYIKGYQRRWFVLSNGLLSYYRSKAEMRHTCRGTINLATANITVEDSCNFIISNGGAQTYHLKASSEVERQRWVTALELAKAKAVKMLAESDDSGDEESVSQTDKTELQSTLRTLSSKVEDLSTCNDLIAKHGTALQRSLSELESLKLPAESNEKIKQVNERATLFRITSNAMINACRDFLMLAQTHSKKWQKSLQYERDQRIRLEETLEQLAKQHNHLERAFRGATVLPANPPGSAGSGKDQCCSGKGDMSDEDDENEFFDAPEIITMPENLGHKRTGSNISGASSDVSLDEQYKHQLEETKKEKRTRIPYKPNYSLNLWSIMKNCIGKELSKIPMPVNFNEPLSMLQRLTEDLEYHELLDRAAKCENSLEQLCYVAAFTVSSYSTTVFRTSKPFNPLLGETFELDRLEENGYRSICEQVSHHPPAAAHHAESKNGWTLRQEIKITSKFRGKYLSIMPLGTIHCIFHSTGHHYTWKKVTTTVHNIIVGKLWIDQSGEIDIVNHKTGDKCNLKFVPYSYFSRDVARKVTGEVTDPSGKVHFALLGTWDEKMDCFKVQAASGENGGDARQRGHEAEDSRVMLWKRNPLPKNAENMYYFSELALTLNAWEGGTAPTDSRLRPDQRLMENGRWDEANAEKQRLEEKQRLSRKKREAEAAKATEDGTPHDPYKALWFERKKDPVTRELTHIYSGEYWECKEKQDWGSCPDIF
With B2 the binding (FLAG-VAPA) was “binds”.
